Experimental data: PubChem BioAssay (NCATS)
This list was built around the results that the source calls inconclusive (neither active nor inactive); the mix of calls is not that of the screen. Potencies of inconclusive entries are doubtful fits and often do not repeat. Activity calls are given as the source filed them. Calls follow the shape of the dose curve; as a rule, active = well fitted cell-killing curve with a large enough effect; inconclusive = small, poorly fitted or top-dose-only effect, or effect the other way; inactive = no such curve, though single readings can be large or run the other way.

What was measured:
[1] = Quantitative High-Throughput drug screen in 47 multiple myeloma cell lines against the NCATS MIPE library collection: L363_DSMZ cell viability assay (AID 1918984); details: L363 myeloma viability, CellTiter-Glo ATP luminescence, 48 h; viability (% of control): at 45.8 µM (top of the series); also: nearly all actives have a fitted effect of over 40% in size
Outline: (§1)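 MIPE 4.0 approved/investigational drugs; 500 cells/well; 48 h 37 °C humidified 5% CO2; CTG luminescence readout; DMSO = 100%, media = 0% viability.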

[2] = Quantitative High-Throughput drug screen in 47 multiple myeloma cell lines against the NCATS MIPE library collection: KMS34_JCRB cell viability assay (AID 1918985); details: KMS34 myeloma viability, CellTiter-Glo ATP luminescence, 48 h; viability, percent of control: at 45.8 µM (top of the series); also: nearly all actives have a fitted effect of over 40% in size
Outline: as §1

[3] = Quantitative High-Throughput drug screen in 47 multiple myeloma cell lines against the NCATS MIPE library collection: OCIMY7_PLB cell viability assay (AID 1918987); details: OCI-MY7 myeloma viability, CellTiter-Glo ATP, 48 h; viability (% of DMSO): at 45.8 µM (top of the series); also: nearly all actives have a fitted effect of over 65% in size
Outline: as §1

[4] = Quantitative High-Throughput drug screen in 47 multiple myeloma cell lines against the NCATS MIPE library collection: OCIMY5_PLB cell viability assay (AID 1918988); details: OCI-MY5 myeloma viability, ATP luminescence, 48 h; viability, % of control: at 45.8 µM (top of the series); also: nearly all actives have a fitted effect of over 65% in size;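 as to viability, % of control: 100% = DMSO-treated wells and 0% = wells with media alone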
Outline: as §1

[5] = Quantitative High-Throughput drug screen in 47 multiple myeloma cell lines against the NCATS MIPE library collection: OPM1_PLB cell viability assay (AID 1918989); also: nearly all actives have a fitted effect of over 40% in size
Outline: as §1

[6] = Quantitative High-Throughput drug screen in 47 multiple myeloma cell lines against the NCATS MIPE library collection: SKMM1_PLB cell viability assay (AID 1919863); details: SKMM1 myeloma viability, CellTiter-Glo ATP, 48 h; viability: hits give low values; also: nearly all actives have a fitted effect of over 35% in size
Outline: as §1

[7] = Quantitative High-Throughput drug screen in 47 multiple myeloma cell lines against the NCATS MIPE library collection: U266_ATCC cell viability assay (AID 1919864); also: nearly all actives have a fitted effect of over 35% in size
Outline: as §1

[8] = Quantitative High-Throughput drug screen in 47 multiple myeloma cell lines against the NCATS MIPE library collection: XG6_PLB cell viability assay (AID 1919865); details: XG6 myeloma viability, CellTiter-Glo ATP luminescence, 48 h; viability (% of control): at 45.8 µM (top of the series); also: nearly all actives have a fitted effect of over 40% in size
Outline: as §1

[9] = Quantitative High-Throughput drug screen in 47 multiple myeloma cell lines against the NCATS MIPE library collection: XG1_PLB cell viability assay (AID 1919866); also: nearly all actives have a fitted effect of over 35% in size
Outline: as §1

[10] = Quantitative High-Throughput drug screen in 47 multiple myeloma cell lines against the NCATS MIPE library collection: VP6_DJ cell viability assay (AID 1919867); details: ATP luminescence, 48 h; viability (% of DMSO): at 45.8 µM (top of the series); also: nearly all actives have a fitted effect of over 40% in size;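 as to viability (% of DMSO): 100% = DMSO-only wells and 0% = wells with media alone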
Outline: as §1
Potency is read from the fitted curve at half-maximal effect.

Row | SMILES | Potency [1] | Potency [2] | Potency [3] | Potency [4] | Potency [5] | Potency [6] | Potency [7] | Potency [8] | Potency [9] | Potency [10] | viability [6]
1 | CCCNCC(O)COc1ccccc1C(=O)CCc1ccccc1 (stereo unspecified) | inconclusive: 20.9 µM [cytotoxic, partial curve, poor fit] | inactive | inconclusive: 3.72 µM [cytotoxic, full curve, poor fit] | inconclusive: 37.2 µM [cytotoxic, single point] | inconclusive: 18.7 µM [cytotoxic, partial curve, poor fit] | inconclusive: 0.0015 µM [rising, full curve, poor fit] | inactive | inactive | inconclusive: 3.72 µM [cytotoxic, full curve, poor fit] | inconclusive: 4.18 µM [cytotoxic, partial curve, poor fit] | 
2 | Nc1nc(OCc2ccccc2)c2[nH]cnc2n1 | inconclusive: 14.8 µM [cytotoxic, partial curve, poor fit] | inconclusive: 20.9 µM [cytotoxic, single point] | inconclusive: 14.8 µM [cytotoxic, partial curve, poor fit] | inconclusive: 20.9 µM [cytotoxic, partial curve, poor fit] | inconclusive: 18.7 µM [cytotoxic, partial curve, poor fit] |  | inconclusive: 23.5 µM [cytotoxic, single point] |  |  |  | inactive: 128%
3 | C[C@@]1(c2cc(-c3cncnc3)c(F)cc2F)CCSC(N)=N1 | active: 1.48 µM | inactive | inconclusive: 0.296 µM [cytotoxic, full curve, poor fit] | inconclusive: 0.0118 µM [rising, full curve, poor fit] | inconclusive: 33.2 µM [cytotoxic, single point] | inconclusive: 26.4 µM [cytotoxic, single point] | inactive | inconclusive: 7.43 µM [cytotoxic, partial curve] | inconclusive: 13.2 µM [cytotoxic, partial curve] | inconclusive: 5.9 µM [cytotoxic, partial curve, poor fit] | 
4 | CC(C)C1CCC(C(=O)N[C@H](Cc2ccccc2)C(=O)O)CC1 (stereo partly specified) | inconclusive: 1.66 µM [cytotoxic, full curve, poor fit] | inactive | inconclusive: 0.132 µM [cytotoxic, full curve, poor fit] | inconclusive: 0.0418 µM [cytotoxic, full curve, poor fit] | inactive | inconclusive: 0.118 µM [cytotoxic, full curve, poor fit] | inconclusive: 10.5 µM [cytotoxic, partial curve, poor fit] | inactive | inactive | inconclusive: 18.7 µM [cytotoxic, partial curve, poor fit] | 
5 | Nc1nc(-c2nn(Cc3ccccc3F)c3ncccc23)nc(N)c1N1CCOCC1 | inconclusive: 33.2 µM [cytotoxic, single point] | inactive | inconclusive: 9.35 µM [cytotoxic, partial curve, poor fit] | inactive | inconclusive: 37.2 µM [cytotoxic, single point] |  | inconclusive: 16.6 µM [cytotoxic, partial curve, poor fit] | inconclusive: 18.7 µM [cytotoxic, single point] | inconclusive: 26.4 µM [cytotoxic, single point] | active: 3.72 µM | inactive: 84.5%
6 | Clc1ccc(COC(Cn2ccnc2)c2ccc(Cl)cc2Cl)cc1 (stereo unspecified) | inconclusive: 37.2 µM [cytotoxic, single point] | inconclusive: 26.4 µM [cytotoxic, single point] | inconclusive: 0.0021 µM [rising, full curve, poor fit] | inconclusive: 26.4 µM [cytotoxic, partial curve, poor fit] | inconclusive: 37.2 µM [cytotoxic, single point] | inconclusive: 26.4 µM [cytotoxic, single point] | inconclusive: 33.2 µM [cytotoxic, single point] | inconclusive: 20.9 µM [cytotoxic, partial curve] |  |  | 
7 | CN(N=O)C(=O)N[C@H]1C(O)OC(CO)[C@@H](O)[C@H]1O (stereo partly specified) | inactive | inconclusive: 0.001 µM [cytotoxic] | inactive | inconclusive: 0.0026 µM [rising, full curve, poor fit] | inactive | inconclusive: 0.296 µM [rising, full curve, poor fit] | inconclusive: 0.105 µM [rising, partial curve, poor fit] |  | inactive | inconclusive: 1.87 µM [cytotoxic, full curve, poor fit] | 
8 | Clc1ccc(CCC(Cn2ccnc2)Sc2c(Cl)cccc2Cl)cc1 (stereo unspecified) | inconclusive: 16.6 µM [cytotoxic, partial curve, poor fit] | inconclusive: 37.2 µM [cytotoxic, single point] | active: 13.2 µM | inconclusive: 13.2 µM [cytotoxic, partial curve, poor fit] | inconclusive: 26.4 µM [cytotoxic, single point] | inconclusive: 33.2 µM [cytotoxic, single point] | inactive |  | inconclusive: 23.5 µM [cytotoxic, single point] |  | 
9 | O=C(O)CSCC(=O)NC1CCSC1=O (stereo unspecified) | inconclusive: 0.0012 µM [rising, full curve, poor fit] | inconclusive: 0.001 µM [cytotoxic] | inconclusive: 0.0012 µM [rising, full curve, poor fit] | inconclusive: 0.235 µM [rising, full curve, poor fit] | inactive |  | inconclusive: 0.0118 µM [rising, full curve, poor fit] | inactive | inactive | inconclusive: 0.743 µM [cytotoxic, full curve, poor fit] | inactive: 130%
10 | CC=CC(=O)N(CC)c1ccccc1C | inactive | inconclusive: 2.35 µM [cytotoxic, partial curve, poor fit] | inconclusive: 0.0118 µM [rising, full curve, poor fit] | inactive | inactive |  |  |  |  |  | inactive: 126%
11 | O=c1cc(-c2ccc(O)c(O)c2)oc2cc(O)cc(O)c12 | inconclusive: 8.33 µM [cytotoxic, partial curve, poor fit] | inconclusive: 0.0132 µM [rising, full curve, poor fit] | inconclusive: 0.0132 µM [rising, full curve, poor fit] | inconclusive: 0.148 µM [rising, full curve, poor fit] | inconclusive: 0.0033 µM [rising, full curve, poor fit] | inconclusive: 5.26 µM [rising, partial curve] | inconclusive: 23.5 µM [cytotoxic, single point] |  | inconclusive: 16.6 µM [cytotoxic, partial curve, poor fit] |  | 
12 | O=C1NC(=O)C(=Cc2ccc3c(c2)OC(F)(F)O3)S1 | inconclusive: 13.2 µM [cytotoxic, partial curve, poor fit] | inconclusive: 1.32 µM [cytotoxic, full curve, poor fit] | inconclusive: 9.35 µM [cytotoxic, partial curve, poor fit] | inconclusive: 2.35 µM [cytotoxic, partial curve, poor fit] | active: 7.43 µM | inconclusive: 20.9 µM [cytotoxic, partial curve, poor fit] | inactive |  | inconclusive: 10.5 µM [cytotoxic, partial curve] |  | 
13 | CC(C)C[C@@H](N)[C@H](O)C(=O)N[C@H](C(=O)N[C@H](C(=O)N[C@@H](CC(=O)O)C(=O)O)C(C)C)C(C)C | inactive | inconclusive: 1.05 µM [cytotoxic, full curve, poor fit] | inconclusive: 7.43 µM [cytotoxic, partial curve, poor fit] | inactive | active: 4.69 µM |  | inconclusive: 20.9 µM [cytotoxic, single point] | active: 7.43 µM | active: 2.64 µM | active: 5.26 µM | inactive: 122%
14 | COc1ccc2nc3cc(Cl)ccc3c(Nc3cc(CN4CCCC4)c(O)c(CN4CCCC4)c3)c2n1 | active: 16.6 µM | inconclusive: 29.6 µM [cytotoxic, single point] | inconclusive: 33.2 µM [cytotoxic, single point] |  |  |  |  |  |  |  | 
15 | COC(=O)C1=C(C)NC(C)=C(C(=O)OCCCN2CCC(c3ccccc3)(c3ccccc3)CC2)C1c1cccc([N+](=O)[O-])c1 (stereo unspecified) | inconclusive: 1.48 µM [cytotoxic, partial curve, poor fit] | active: 3.32 µM | inactive | inconclusive: 2.64 µM [cytotoxic, full curve, poor fit] | inconclusive: 11.8 µM [cytotoxic, single point] |  | inconclusive: 29.6 µM [cytotoxic, single point] | inactive | inactive | inactive | inactive: 122%
16 | CN1CCN(c2cccc(Nc3nc4c(-c5ccc(S(C)(=O)=O)cc5)cccn4n3)c2)CC1 | active: 3.32 µM | inconclusive: 18.7 µM [cytotoxic, partial curve, poor fit] | active: 0.743 µM | active: 4.69 µM |  |  |  |  |  |  | 

No new results follow: entries from further up.
Row | SMILES | Potency [1] | Potency [2] | Potency [3] | Potency [4] | Potency [5] | Potency [6] | Potency [7] | Potency [8] | Potency [9] | Potency [10] | viability [6]
10 | CC=CC(=O)N(CC)c1ccccc1C | inactive | inconclusive: 2.35 µM [cytotoxic, partial curve, poor fit] | inconclusive: 0.0118 µM [rising, full curve, poor fit] | inactive | inactive |  |  |  |  |  | inactive: 126%
11 | O=c1cc(-c2ccc(O)c(O)c2)oc2cc(O)cc(O)c12 | inconclusive: 8.33 µM [cytotoxic, partial curve, poor fit] | inconclusive: 0.0132 µM [rising, full curve, poor fit] | inconclusive: 0.0132 µM [rising, full curve, poor fit] | inconclusive: 0.148 µM [rising, full curve, poor fit] | inconclusive: 0.0033 µM [rising, full curve, poor fit] | inconclusive: 5.26 µM [rising, partial curve] | inconclusive: 23.5 µM [cytotoxic, single point] |  | inconclusive: 16.6 µM [cytotoxic, partial curve, poor fit] |  | 
